US8940715B2, “Lipid-regulating agent and use thereof” (Hayashibara Co., Ltd., priority 2003, dated 2015)

Legend:
[1] = Experiment 1-1 feeding test on rat: weight and amount of feed taken; assay type: in vivo; conditions: 4 weeks
Source text: (§1) Fifty 5-weeks aged male Wister-rats, having a weight of 110 to 120 grams, commercialized by Charles River Japan, Kanagawa, Japan, were fed on a non-fiber feed having a composition shown in Table 1 for one week for habituation. After the habituation, the rats were randomly divided into five groups and each group was fed on either of feeds shown in Table 1, i.e., a non-fiber feed, a feed in which cellulose was incorporated into the non-fiber feed to give a content of 5% (hereinafter, abbreviated as “fiber feed”), a feed in which powdery anhydrous crystalline CTS (purity of CTS: 99.5%), prepared by the method of Example A-3 described later, was incorporated into the non-fiber feed to give a content of 1, 2, or 5%, on a dry solid basis, and the feeding test was carried out for four weeks. A fiber-feed and three kinds of feeds comprising CTS were prepared to give the total content of cellulose or CTS and corn starch of 44.75% to the total weight of each feed. The rats were kept under the conditions of keeping the temperature at 25° C., lighting and shading for 12 hours each/day, and allowing the rats to eat the respective feed and water freely. After the completion of the feeding test, weight of individuals in each group was measured and an average weight and an average increase of weight of each group during the test period were calculated. Also, the total amount of feed fed to individual rat in each group during the 4-weeks test period and an average amount of CTS taken per day per kg-weight-rat were calculated and the results are in Table 2.

[2] = system: male Wister-rats; experiment: Experiment 1-1 liver weight and lipids in liver; assay type: in vivo; conditions: 4 weeks, rat
Source text: as §1
After collecting the blood described above, each rat was killed by dislocating its cervical vertebrae and anatomized. Then, adipose tissues surrounding intestinal membrane, kidney, and testis, as well as liver and cecum, were collected. The wet-weight of those adipose tissues was measured and the results are in Table 4. In the case of liver, the wet-weight and the amount of total lipid, total cholesterol, triglyceride, and phospholipids were measured and the results are in Table 5. […]

[3] = 5% (w/w) CTS (Fiber: 5% cellulose) in feed

In the case of `OCC1OC2OCC3O[C@H](O[C@H]4C(O)C(CO)OC(OCC5O[C@H](O[C@@H](C1O)C2O)C(O)C(O)[C@@H]5O)C4O)C(O)C(O)[C@@H]3O` (stereo partly drawn) [CTS, cyclo {→6)-α-D-glucopyranosyl-(1→3)-α-D-glucopyranosyl-(1→6)-α-D-glucopyranosyl-(1→3)-α-D-glucopyranosyl-(1→}], the “Total amount of feed taken” value ([1]; 1% (w/w) CTS in feed) was 593 g/individual/28 days, the “Total amount of feed taken” value ([1]; 2% (w/w) CTS in feed) was 601 g/individual/28 days and the “Total amount of feed taken” value [1, 3] was 561 g/individual/28 days. The Weight of liver ([2]; 1% (w/w) CTS in feed) was 8.4 g/individual, the Weight of liver ([2]; 2% (w/w) CTS in feed) was 8.6 g/individual and the Weight of liver [2, 3] was 8.1 g/individual.
